For the experiment, the target named is T1, Ubp5-GFP (S. pombe) (UniProt Q09879).
T1 sequence: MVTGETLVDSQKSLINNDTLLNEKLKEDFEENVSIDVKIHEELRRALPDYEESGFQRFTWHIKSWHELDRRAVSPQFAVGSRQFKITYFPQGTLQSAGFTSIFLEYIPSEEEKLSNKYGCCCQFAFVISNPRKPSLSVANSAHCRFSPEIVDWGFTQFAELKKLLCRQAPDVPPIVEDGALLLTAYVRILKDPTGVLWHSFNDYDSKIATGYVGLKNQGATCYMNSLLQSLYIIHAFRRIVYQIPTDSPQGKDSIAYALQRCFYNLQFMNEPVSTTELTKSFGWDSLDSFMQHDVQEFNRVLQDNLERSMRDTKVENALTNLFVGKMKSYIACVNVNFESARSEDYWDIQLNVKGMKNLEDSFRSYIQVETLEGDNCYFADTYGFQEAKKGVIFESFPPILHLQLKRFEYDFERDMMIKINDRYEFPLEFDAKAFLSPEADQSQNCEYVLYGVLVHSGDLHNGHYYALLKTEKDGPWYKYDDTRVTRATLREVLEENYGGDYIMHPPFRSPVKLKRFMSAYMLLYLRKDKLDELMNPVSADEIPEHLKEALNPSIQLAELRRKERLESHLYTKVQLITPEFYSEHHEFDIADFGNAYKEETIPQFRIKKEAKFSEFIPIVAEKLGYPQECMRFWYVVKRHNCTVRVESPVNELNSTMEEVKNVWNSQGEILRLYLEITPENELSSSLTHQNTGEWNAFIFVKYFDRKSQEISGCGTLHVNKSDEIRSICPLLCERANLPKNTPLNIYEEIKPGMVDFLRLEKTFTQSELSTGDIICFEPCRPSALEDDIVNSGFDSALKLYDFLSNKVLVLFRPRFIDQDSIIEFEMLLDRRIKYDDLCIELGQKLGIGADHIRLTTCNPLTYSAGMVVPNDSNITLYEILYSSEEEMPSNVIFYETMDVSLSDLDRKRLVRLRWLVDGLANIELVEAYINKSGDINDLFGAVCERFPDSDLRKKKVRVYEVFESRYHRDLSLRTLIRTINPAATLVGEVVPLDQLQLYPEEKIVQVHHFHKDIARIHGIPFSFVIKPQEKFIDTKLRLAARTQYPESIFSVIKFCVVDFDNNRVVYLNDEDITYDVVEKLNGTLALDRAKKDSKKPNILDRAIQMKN
Kind of experiment: co-IP; native NP-40 lysates of S. pombe strains with tagged proteins; IP with anti-GFP, anti-V5 or anti-FLAG and Protein G Sepharose, or IgG Sepharose; immunoblot; wild-type background, for Ubp9 and Bun62 also bun107-null. A general note: A western blot detects proteins with antibodies after separation by electrophoresis.

Here are results for 1 substance from publication PMC2935449.

Results are given in words; binding and its absence hold for the method and conditions named. In cells and extracts the contact can be indirect. Binding calls can cover weak binding; strength is not graded here. Tags and fused reporters may be left off the sequences shown.

Take Ftp105-V5 (S. pombe): the binding entry is on record as “binds”.
